Results as given in PubChem BioAssay AID1347076 (National Center for Advancing Translational Sciences (NCATS), 2019).
The whole screen tested about 400,000 compounds, of which about 13,000 (3.2%) were called active. The inconclusive results got no clear call from the source; some entries with a clear call stand among them for comparison. Calls follow the shape of the dose curve; as a rule, active = well fitted cell-killing curve with a large enough effect; inconclusive = small, poorly fitted or top-dose-only effect, or effect the other way; inactive = flat fitted curve, though single readings scatter. Potencies beside an inconclusive call are fits to weak or partial responses and may not hold up.
% is scaled to controls: 0 for no effect and ±100 for the full control effect; potency is read from the fitted curve at half-maximal effect.

Test: qHTS assay for MDR1-selective chemotherapeutics: Primary screen using the drug-selected MDR subline cells KB-V1; also: nearly all actives have a fitted effect of over 60% in size
Conditions: KB-V1 MDR cells viability, CellTiter-Glo, 72 h; activity change, negative = cytotoxicity: at 46.1 µM (top of the series)
In short: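 Drug-selected KB-V1 cells, grown in DMEM lacking phenol red with 10% FBS, receive compound titrations; after three days at 37 degrees C, surviving cell ATP is quantified by CellTiter-Glo luminescence and responses normalized and curve-fitted.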
For `CSc1nnc(-c2sc3cc(Cl)ccc3c2Cl)n1C`, the Potency was active: 18.4 µM.
With `COc1ccc(NS(=O)(=O)c2cc(NC(=O)c3ccc(=O)[nH]c3)ccc2C)cc1` the Potency was inconclusive: 29.1 µM [rising, single point].
In the case of `CC(SCc1ccccc1)C(=O)Nc1ccc2c(c1)OCO2` (centres undefined), the Potency was active: 18.4 µM.
For `CCOC(=O)C1=C(C)NC(C)=C(C(=O)OCC)C1C(=O)OCC(=O)N1CC(C)OC(C)C1` (centres undefined), the Potency was inconclusive: 29.1 µM [rising, single point].
For `CCOc1ccc(N(C(=O)c2ccccc2F)S(=O)(=O)c2ccc3c(c2)n(C)c(=O)n3C)cc1`, the Potency was “inactive”.
With `Cc1ccc(NC(=O)COC(=O)Cn2ccc(=O)[nH]c2=O)cc1C` the Potency was “inactive”.
In the case of `Cc1cc(C)c(S(=O)(=O)Nc2ccccc2-c2ccccc2)c(C)c1`, the Potency was active: 18.4 µM.
With `CCn1c(SCC(=O)N/N=C/C(C)=C/c2ccco2)nnc1-c1ccccc1` the Potency was active: 14.6 µM.
With `COC(=O)c1cccc(C23CC4(C2)[C@H](CN(Cc2ccc(-c5ccccc5)cc2)[C@@H]4c2ccccc2)C3c2ccc(C(F)(F)F)cc2)c1` (some centres undefined) the Potency was inconclusive: 29.1 µM [rising, single point].
For `CCC(=O)N(c1nnc(SCC(=O)c2ccc[nH]2)s1)C1CC1`, the Potency was active: 11.6 µM.
With `Cc1ccc(CSc2nnc(Nc3ccc(C)cc3)s2)cc1` the Potency was inconclusive: 20.6 µM [cytotoxic, partial curve, poor fit].
With `COc1ccc(-n2nc(C(=O)NCC(=O)N3CCN(Cc4ccccc4)CC3)c3ccccc3c2=O)c(OC)c1` the Potency was inconclusive: 9.2 µM [cytotoxic, partial curve].
With `COc1ccccc1-c1c(C)oc2cc(OC(=O)c3ccco3)ccc2c1=O` the activity change, negative = cytotoxicity was inconclusive: 32.1%.
For `Cc1cccc(C)c1N=C1SC(CC(=O)Nc2c(C)cccc2C)C(=O)N1CCc1ccccn1` (centres undefined), the Potency was inconclusive: 4.61 µM [cytotoxic, full curve].
In the case of `O=C(NCCCN1CCOCC1)C1CC(=O)N(c2ccccc2)C1` (centres undefined), the Potency was inconclusive: 20.6 µM [rising, single point].
With `COc1ccc(OC)c(C2NC(=O)c3sc(=S)n(-c4ccccc4)c3N2)c1` (centres undefined) the Potency was inconclusive: 16.4 µM [cytotoxic, partial curve, poor fit].
For `O=C(CCNS(=O)(=O)c1cccs1)N1CCN(c2cccc(C(F)(F)F)c2)CC1`, the Potency was active: 16.4 µM.
For `O=C(NC1CCCCCC1)C(Cc1ccccc1)n1cccc1` (centres undefined), the Potency was “inactive”.
For `CCc1ccccc1NC(=S)NC1CC2CCC(C1)N2Cc1ccc(F)cc1` (centres undefined), the Potency was inconclusive: 5.8 µM [cytotoxic, full curve, poor fit].
